According to publication PMC4476799, “Englerin A Agonizes the TRPC4/C5 Cation Channels to Inhibit Tumor Cell Line Proliferation” (PLoS ONE, 2015):
Further values from the same series stand in other lists.

Test system: cancer cell lines from the cancer cell line encyclopedia (CCLE)
Experiment: Cell line profiling (CLiP) proliferation experiment
Type: cell-based
Design: ACTIVITY_AREA: scale not given here; AMAX: unit not given here
Procedure: Compound profiling experiment and data analysis was performed as previously described. Data was imported and plotted using the Tibco Spotfire DXP application. Lines were categorized as sensitive, intermediate and refractory as follows: Amax<-40 & Inflection Point <2 ~ Sensitive, Amax>-20 & Inflection Point >10 ~ Refractory, all else were called Intermediate. Cancer Cell line HG-U133 Plus 2 data was processed and normalized as described. […] Five sets of refractory cell lines were generated from the pool of refractory cell lines trying to match the lineage composition of the set of sensitive cell lines. The limma package was used as previously described to perform the statistical comparison.

[1] = SEM (haematopoietic_and_lymphoid_tissue)
[2] = SK-MEL-2, second row, PRIMARY_SITE (Empty)
[3] = SNU-738 (central_nervous_system)
[4] = SNU-C1 (large_intestine, adenocarcinoma)
[5] = SNU-C5 (large_intestine, adenocarcinoma)
[6] = SR-786 (haematopoietic_and_lymphoid_tissue)
[7] = SR-786 (haematopoietic_and_lymphoid_tissue, anaplastic_large_cell_lymphoma)
[8] = ST486 (haematopoietic_and_lymphoid_tissue)
[9] = ST486 (haematopoietic_and_lymphoid_tissue, Burkitt_lymphoma)
[10] = SU-DHL-4 (haematopoietic_and_lymphoid_tissue)
[11] = SU-DHL-4 (haematopoietic_and_lymphoid_tissue, diffuse_large_B_cell_lymphoma)
[12] = SU-DHL-5 (haematopoietic_and_lymphoid_tissue)
[13] = SU-DHL-5 (haematopoietic_and_lymphoid_tissue, diffuse_large_B_cell_lymphoma)
[14] = SU-DHL-8 (haematopoietic_and_lymphoid_tissue)
[15] = SU-DHL-8 (haematopoietic_and_lymphoid_tissue, diffuse_large_B_cell_lymphoma)
[16] = SU-DHL-10 (haematopoietic_and_lymphoid_tissue)
[17] = SU-DHL-10 (haematopoietic_and_lymphoid_tissue, diffuse_large_B_cell_lymphoma)

CC(C)[C@@]12C[C@@H](O)[C@@](C)(O1)[C@@H]1CC[C@@H](C)[C@H]1[C@@H]2OC(=O)/C=C/c1ccccc1 [Englerin B]
ACTIVITY_AREA (Reh cells): 23.98 | AMAX (Reh cells): -68.69 | RESPONSE (Reh cells): INTERMEDIATE | ACTIVITY_AREA (SCaBER (urinary_tract)): 14.07 | AMAX (SCaBER (urinary_tract)): -45.66 | RESPONSE (SCaBER (urinary_tract)): INTERMEDIATE | ACTIVITY_AREA [1]: 52.36 | AMAX [1]: -92.78 | RESPONSE [1]: INTERMEDIATE | ACTIVITY_AREA (SF126 cells): 16.33 | AMAX (SF126 cells): -51.64 | RESPONSE (SF126 cells): INTERMEDIATE | ACTIVITY_AREA (SH-4 (skin)): 33.65 | AMAX (SH-4 (skin)): -3.14 | RESPONSE (SH-4 (skin)): REFRACTORY | ACTIVITY_AREA (SH-10-TC (stomach)): 15.1 | AMAX (SH-10-TC (stomach)): -43.59 | RESPONSE (SH-10-TC (stomach)): INTERMEDIATE | ACTIVITY_AREA (SHP-77 cells): 31.6 | AMAX (SHP-77 cells): -35.78 | RESPONSE (SHP-77 cells): INTERMEDIATE | ACTIVITY_AREA (SJRH30 (soft_tissue)): 51.08 | AMAX (SJRH30 (soft_tissue)): -72.1 | RESPONSE (SJRH30 (soft_tissue)): INTERMEDIATE | ACTIVITY_AREA (SJSA-1 cells): 16.2 | AMAX (SJSA-1 cells): -50.82 | RESPONSE (SJSA-1 cells): INTERMEDIATE | ACTIVITY_AREA (SK-BR-3 cells): 113.22 | AMAX (SK-BR-3 cells): -42.92 | RESPONSE (SK-BR-3 cells): INTERMEDIATE | ACTIVITY_AREA (SK-CO-1 (large_intestine)): 18.26 | AMAX (SK-CO-1 (large_intestine)): -55.85 | RESPONSE (SK-CO-1 (large_intestine)): INTERMEDIATE | ACTIVITY_AREA (SK-ES-1 (bone)): 20.21 | AMAX (SK-ES-1 (bone)): -73.28 | RESPONSE (SK-ES-1 (bone)): INTERMEDIATE | ACTIVITY_AREA (SK-LMS-1 cells): 30.68 | AMAX (SK-LMS-1 cells): -47.74 | RESPONSE (SK-LMS-1 cells): INTERMEDIATE | ACTIVITY_AREA (SK-LU-1 (lung)): 14.44 | AMAX (SK-LU-1 (lung)): -26.13 | RESPONSE (SK-LU-1 (lung)): INTERMEDIATE | ACTIVITY_AREA (SK-MEL-1 cells): 32.43 | AMAX (SK-MEL-1 cells): -84.28 | RESPONSE (SK-MEL-1 cells): INTERMEDIATE | ACTIVITY_AREA (SK-MEL-2 (skin)): 1.02 | AMAX (SK-MEL-2 (skin)): 5.8 | RESPONSE (SK-MEL-2 (skin)): REFRACTORY | ACTIVITY_AREA [2]: 1.02 | AMAX [2]: 5.8 | RESPONSE [2]: REFRACTORY | ACTIVITY_AREA (SK-MEL-3 cells): 63.68 | AMAX (SK-MEL-3 cells): -13.66 | RESPONSE (SK-MEL-3 cells): REFRACTORY | ACTIVITY_AREA (SK-MEL-5 (skin)): 22.94 | AMAX (SK-MEL-5 (skin)): -46.63 | RESPONSE (SK-MEL-5 (skin)): INTERMEDIATE | ACTIVITY_AREA (SK-MEL-24 (skin)): 33 | AMAX (SK-MEL-24 (skin)): -43.01 | RESPONSE (SK-MEL-24 (skin)): INTERMEDIATE | ACTIVITY_AREA (SK-MEL-30 (skin)): 109.54 | AMAX (SK-MEL-30 (skin)): -50.55 | RESPONSE (SK-MEL-30 (skin)): INTERMEDIATE | ACTIVITY_AREA (SK-MES-1 cells): 30.56 | AMAX (SK-MES-1 cells): -55.21 | RESPONSE (SK-MES-1 cells): INTERMEDIATE | ACTIVITY_AREA (SK-N-AS (autonomic_ganglia)): 91.35 | AMAX (SK-N-AS (autonomic_ganglia)): -34.64 | RESPONSE (SK-N-AS (autonomic_ganglia)): INTERMEDIATE | ACTIVITY_AREA (SK-N-DZ cells): 7.35 | AMAX (SK-N-DZ cells): 8.38 | RESPONSE (SK-N-DZ cells): REFRACTORY | ACTIVITY_AREA (SK-N-FI (autonomic_ganglia)): 42.7 | AMAX (SK-N-FI (autonomic_ganglia)): -8.91 | RESPONSE (SK-N-FI (autonomic_ganglia)): REFRACTORY | ACTIVITY_AREA (SK-OV-3 (ovary)): 15.78 | AMAX (SK-OV-3 (ovary)): -2.48 | RESPONSE (SK-OV-3 (ovary)): REFRACTORY | ACTIVITY_AREA (SK-UT-1 (soft_tissue)): 43.67 | AMAX (SK-UT-1 (soft_tissue)): -47.86 | RESPONSE (SK-UT-1 (soft_tissue)): INTERMEDIATE | ACTIVITY_AREA (SNB-19 cells): 46.12 | AMAX (SNB-19 cells): -38.66 | RESPONSE (SNB-19 cells): INTERMEDIATE | ACTIVITY_AREA (SNG-M (endometrium)): 18.36 | AMAX (SNG-M (endometrium)): -34.56 | RESPONSE (SNG-M (endometrium)): INTERMEDIATE | ACTIVITY_AREA (SNU-1 (stomach)): 12.42 | AMAX (SNU-1 (stomach)): -40.73 | RESPONSE (SNU-1 (stomach)): INTERMEDIATE | ACTIVITY_AREA (SNU-16 cells): 45.05 | AMAX (SNU-16 cells): -92.26 | RESPONSE (SNU-16 cells): INTERMEDIATE | ACTIVITY_AREA (SNU-119 (ovary)): 11.44 | AMAX (SNU-119 (ovary)): -38.35 | RESPONSE (SNU-119 (ovary)): INTERMEDIATE | ACTIVITY_AREA (SNU-182 (liver)): 33.88 | AMAX (SNU-182 (liver)): -47.55 | RESPONSE (SNU-182 (liver)): INTERMEDIATE | ACTIVITY_AREA (SNU-216 (stomach)): 13.08 | AMAX (SNU-216 (stomach)): -38.81 | RESPONSE (SNU-216 (stomach)): INTERMEDIATE | ACTIVITY_AREA (SNU-449 (liver)): 71.96 | AMAX (SNU-449 (liver)): -65.86 | RESPONSE (SNU-449 (liver)): INTERMEDIATE | ACTIVITY_AREA [3]: 58.38 | AMAX [3]: -11.21 | RESPONSE [3]: REFRACTORY | ACTIVITY_AREA (SNU-878 (liver)): 12.07 | AMAX (SNU-878 (liver)): -56.36 | RESPONSE (SNU-878 (liver)): INTERMEDIATE | ACTIVITY_AREA (SNU-1079 (biliary_tract)): 17.2 | AMAX (SNU-1079 (biliary_tract)): -58.5 | RESPONSE (SNU-1079 (biliary_tract)): INTERMEDIATE | ACTIVITY_AREA [4]: 40.33 | AMAX [4]: -44.63 | RESPONSE [4]: INTERMEDIATE | ACTIVITY_AREA (SNU-C1 cells): 40.33 | AMAX (SNU-C1 cells): -44.63 | RESPONSE (SNU-C1 cells): INTERMEDIATE | ACTIVITY_AREA (SNU-C5 (large_intestine)): 45.53 | AMAX (SNU-C5 (large_intestine)): -48.42 | RESPONSE (SNU-C5 (large_intestine)): INTERMEDIATE | ACTIVITY_AREA [5]: 45.53 | AMAX [5]: -48.42 | RESPONSE [5]: INTERMEDIATE | ACTIVITY_AREA [6]: 108.24 | AMAX [6]: -45.46 | RESPONSE [6]: INTERMEDIATE | ACTIVITY_AREA [7]: 108.24 | AMAX [7]: -45.46 | RESPONSE [7]: INTERMEDIATE | ACTIVITY_AREA [8]: 53.27 | AMAX [8]: -92.07 | RESPONSE [8]: INTERMEDIATE | ACTIVITY_AREA [9]: 53.27 | AMAX [9]: -92.07 | RESPONSE [9]: INTERMEDIATE | ACTIVITY_AREA [10]: 38.45 | AMAX [10]: -71.62 | RESPONSE [10]: INTERMEDIATE | ACTIVITY_AREA [11]: 38.45 | AMAX [11]: -71.62 | RESPONSE [11]: INTERMEDIATE | ACTIVITY_AREA [12]: 45.11 | AMAX [12]: -80.85 | RESPONSE [12]: INTERMEDIATE | ACTIVITY_AREA [13]: 45.11 | AMAX [13]: -80.85 | RESPONSE [13]: INTERMEDIATE | ACTIVITY_AREA [14]: 24.19 | AMAX [14]: -82.38 | RESPONSE [14]: INTERMEDIATE | ACTIVITY_AREA [15]: 24.19 | AMAX [15]: -82.38 | RESPONSE [15]: INTERMEDIATE | ACTIVITY_AREA [16]: 44.68 | AMAX [16]: -65.49 | RESPONSE [16]: INTERMEDIATE | ACTIVITY_AREA [17]: 44.68 | AMAX [17]: -65.49 | RESPONSE [17]: INTERMEDIATE | ACTIVITY_AREA (SUM52PE (breast)): 18.69 | AMAX (SUM52PE (breast)): -28.85 | RESPONSE (SUM52PE (breast)): INTERMEDIATE | ACTIVITY_AREA (SUM52PE (breast, NS)): 18.69 | AMAX (SUM52PE (breast, NS)): -28.85 | RESPONSE (SUM52PE (breast, NS)): INTERMEDIATE | ACTIVITY_AREA (SUM-52 (breast)): 9.58 | AMAX (SUM-52 (breast)): -47.91 | RESPONSE (SUM-52 (breast)): INTERMEDIATE | ACTIVITY_AREA (SUM-52 (breast, NS)): 9.58
